{
  "sequences": {"note": "Protein sequences, listed by entry. Tags and fused reporters are not part of them.", "UniProt Q6ZLZ9": "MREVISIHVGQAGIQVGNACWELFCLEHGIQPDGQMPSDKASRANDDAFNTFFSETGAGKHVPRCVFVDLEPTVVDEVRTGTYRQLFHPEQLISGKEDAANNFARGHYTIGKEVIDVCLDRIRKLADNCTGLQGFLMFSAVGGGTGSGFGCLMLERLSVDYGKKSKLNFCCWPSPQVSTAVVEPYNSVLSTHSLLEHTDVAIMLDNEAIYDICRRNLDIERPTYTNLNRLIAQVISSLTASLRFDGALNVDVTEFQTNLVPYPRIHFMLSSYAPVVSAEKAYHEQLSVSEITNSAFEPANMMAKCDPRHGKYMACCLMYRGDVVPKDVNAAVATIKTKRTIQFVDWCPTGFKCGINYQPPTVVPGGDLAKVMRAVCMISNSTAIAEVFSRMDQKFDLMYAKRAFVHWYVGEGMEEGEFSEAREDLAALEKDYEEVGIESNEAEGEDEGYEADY"},
  "source": "paper doi:10.1101/2022.09.17.508354",
  "binders": {"B1": {"name": "native PfPFD2 in P. falciparum 3D7 parasite lysate (protein, UniProt Q8ILS7 1-147)", "chain": "METKSNVESPNISEPKESKLTYEQIEKDRVQLVSKIEELYQDVVEHKLVLEALENVPSDRRCYRMVGEVLVERTVGEIKPALMDHKNKVEQVIAECQKQLDQKNNEISNFIKSAKAGNLPGGIINGNPSEDTNNLNDKEKKSDGIIF"}},
  "molecular_target": "native α-tubulin-I in P. falciparum 3D7 parasite lysate (Plasmodium falciparum 3D7 (endogenous in parasite lysate)) (UniProt Q6ZLZ9)",
  "assay": "co-IP",
  "note": "No constants are given. Whether binding was seen depends on the method and setting. Binding seen in cells or lysates may run through a third protein. Some entries that bind do so weakly or less than the wild type.",
  "data": [
    {"binder": "B1", "values": [
      {"measurement": "binding", "result": "binds"}
    ]}
  ]
}
